From PMC6270063, “Novel Antimicrobial Peptide Dendrimers with Amphiphilic Surface and Their Interactions with Phospholipids — Insights from Mass Spectrometry” (Molecules, 2013)

How the values were obtained:
[1] = ESI-MS collision-induced dissociation of dendrimer/DMPG [1:1]2+ complexes; type: physicochemical; conditions: [1:1]2+ complex, gas phase, center-of-mass collision energy, single collision conditions; average of three measurements
[2] = ESI-MS collision-induced dissociation of dendrimer/DMPC [1:1]2+ complexes; type: physicochemical; conditions: [1:1]2+ complex, gas phase, center-of-mass collision energy, single collision conditions; average of three measurements

SMILES | Collision energy for 50% dissociation of the complex (CID50), DMPG/dendrimer [1] [eV] | Collision energy for 50% dissociation of the complex (CID50), DMPC/dendrimer [2] [eV]
NCCCC[C@H](NC(=O)OCc1ccccc1Cl)C(=O)NCCNC(=O)CCN(CCC[C@@H](C(=O)Nc1cccnc1)N(CCC(=O)NCCNC(=O)[C@H](CCCCN)NC(=O)OCc1ccccc1Cl)CCC(=O)NCCNC(=O)[C@H](CCCCN)NC(=O)OCc1ccccc1Cl)CCC(=O)NCCNC(=O)[C@H](CCCCN)NC(=O)OCc1ccccc1Cl [Dendrimer 3a] | 0.55 | 0.36
N[C@@H](CCCCNC(=O)OCc1ccccc1Cl)C(=O)NCCNC(=O)CCN(CCC[C@@H](C(=O)Nc1cccnc1)N(CCC(=O)NCCNC(=O)[C@@H](N)CCCCNC(=O)OCc1ccccc1Cl)CCC(=O)NCCNC(=O)[C@@H](N)CCCCNC(=O)OCc1ccccc1Cl)CCC(=O)NCCNC(=O)[C@@H](N)CCCCNC(=O)OCc1ccccc1Cl [Dendrimer 3e] | 0.45 | 0.33
